Laboratory results taken from PMC3741133.
These are yes or no findings as the source states them, for the method shown. Binding seen in cells or lysates may run through a third protein. Some entries that bind do so weakly or less than the wild type.

Protein sequences, listed by entry. Tags and fused reporters are not part of them. Residues count along the entry.
UniProt P29317, residues 24-976: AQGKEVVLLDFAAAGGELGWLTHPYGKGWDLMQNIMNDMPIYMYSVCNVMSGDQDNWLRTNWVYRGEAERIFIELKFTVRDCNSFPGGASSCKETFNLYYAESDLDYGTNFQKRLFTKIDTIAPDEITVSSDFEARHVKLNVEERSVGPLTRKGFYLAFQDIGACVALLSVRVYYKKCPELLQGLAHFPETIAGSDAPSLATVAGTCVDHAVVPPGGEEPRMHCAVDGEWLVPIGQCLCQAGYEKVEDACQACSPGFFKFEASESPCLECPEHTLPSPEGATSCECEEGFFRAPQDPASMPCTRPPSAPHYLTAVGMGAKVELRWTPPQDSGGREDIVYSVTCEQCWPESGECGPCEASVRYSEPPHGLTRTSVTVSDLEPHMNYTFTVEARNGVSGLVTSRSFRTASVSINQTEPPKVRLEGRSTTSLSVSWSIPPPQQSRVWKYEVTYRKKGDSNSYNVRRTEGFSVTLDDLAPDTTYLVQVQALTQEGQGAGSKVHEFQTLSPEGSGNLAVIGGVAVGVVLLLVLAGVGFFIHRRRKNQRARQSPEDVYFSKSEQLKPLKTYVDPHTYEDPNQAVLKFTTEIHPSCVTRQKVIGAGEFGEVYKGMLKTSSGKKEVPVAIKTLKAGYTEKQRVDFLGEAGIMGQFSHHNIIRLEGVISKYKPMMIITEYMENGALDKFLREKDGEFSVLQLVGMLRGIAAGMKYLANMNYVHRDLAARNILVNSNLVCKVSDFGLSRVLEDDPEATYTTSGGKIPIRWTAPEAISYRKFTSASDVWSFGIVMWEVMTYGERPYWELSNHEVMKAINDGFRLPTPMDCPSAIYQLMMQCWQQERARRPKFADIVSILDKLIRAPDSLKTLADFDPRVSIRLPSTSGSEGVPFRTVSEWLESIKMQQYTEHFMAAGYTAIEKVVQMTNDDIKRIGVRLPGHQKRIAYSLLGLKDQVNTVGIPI
UniProt Q03135: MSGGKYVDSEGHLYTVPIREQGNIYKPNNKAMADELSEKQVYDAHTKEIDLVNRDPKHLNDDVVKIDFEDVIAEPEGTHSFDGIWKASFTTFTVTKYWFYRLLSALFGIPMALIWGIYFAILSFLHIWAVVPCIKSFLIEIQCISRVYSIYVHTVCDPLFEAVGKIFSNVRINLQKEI

Experiments:
[1] = target: EphA2 receptor (human (endogenous in RDES)) (UniProt P29317); assay: co-IP; lysate of the RDES model (500 µg protein) in 50 mM Tris-HCl pH 7.6, 150 mM NaCl, 1% NP-40 with protease and phosphatase inhibitors; immunoprecipitated with anti-CAV1 or anti-EphA2 antibody on Protein G magnetic beads, immunoblot; normal IgG as control
[2] = target: Caveolin-1 (human (endogenous in RDES)) (UniProt Q03135); assay: as above

| Substance | binding [1] | binding [2] |
| --- | --- | --- |
| Caveolin-1 (from UniProt Q03135 1-178) | binds |  |
| EphA2 receptor (from UniProt P29317 24-976) |  | binds |
